{"source": "PubChem BioAssay AID1259254 – NCATS – 2017", "screen": "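Finding genes that stop cells copying their DNA twice in one cycle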 (primary screen)", "system": "human HCT116 colorectal cancer cells", "reagent": "single siRNA against human genes", "timing": "3 days", "read-out": "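Nuclei stained with Hoechst and imaged; cell-cycle phase assigned by DNA content; G2 share scaled per plate, non-targeting siRNA 0%, GMNN siRNA 100%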", "scale": "G2 robust z-score: higher = more G2 cells, more excess DNA replication", "call rule": "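Active siRNAs have a G2 robust z of 5 or more median absolute deviations over the median, which in these data means about 38% or higher of GMNN control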", "note": "Here is a random part of about 59,000 reagents. In the full data, about 1,550 (2.6%) got an active call. 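G2 share is only a proxy for re-replication; each gene was hit by three separate siRNAs, and active genes were retested.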 Reagents against one gene are numbered here. Further read-outs or replicates are left out here. Reagent sequences are not shown. Not stated in the record: the amount of reagent."}
{"gene":"ZNF385B (GeneID 151126)","reagent no.":1,"G2 robust z-score":-0.605,"activity call":"inactive"}
{"gene":"ZNF385B (GeneID 151126)","reagent no.":2,"G2 robust z-score":6.69,"activity call":"active"}
{"gene":"ZNF385B (GeneID 151126)","reagent no.":3,"G2 robust z-score":5.6,"activity call":"active"}
{"gene":"ZNF132 (GeneID 7691)","reagent no.":1,"G2 robust z-score":-0.442,"activity call":"inactive"}
{"gene":"ZNF132 (GeneID 7691)","reagent no.":2,"G2 robust z-score":-0.864,"activity call":"inactive"}
{"gene":"ZNF132 (GeneID 7691)","reagent no.":3,"G2 robust z-score":1.66,"activity call":"inactive"}
{"gene":"CHD6 (GeneID 84181)","reagent no.":1,"G2 robust z-score":-0.82,"activity call":"inactive"}
{"gene":"CHD6 (GeneID 84181)","reagent no.":2,"G2 robust z-score":-0.311,"activity call":"inactive"}
{"gene":"CHD6 (GeneID 84181)","reagent no.":3,"G2 robust z-score":-0.353,"activity call":"inactive"}
{"gene":"SYNE3 (GeneID 161176)","reagent no.":1,"G2 robust z-score":-0.356,"activity call":"inactive"}
{"gene":"SYNE3 (GeneID 161176)","reagent no.":2,"G2 robust z-score":1.15,"activity call":"inactive"}
{"gene":"SYNE3 (GeneID 161176)","reagent no.":3,"G2 robust z-score":-0.583,"activity call":"inactive"}
{"gene":"UBE2E2 (GeneID 7325)","reagent no.":1,"G2 robust z-score":6.82,"activity call":"active"}
{"gene":"UBE2E2 (GeneID 7325)","reagent no.":2,"G2 robust z-score":0.728,"activity call":"inactive"}
{"gene":"UBE2E2 (GeneID 7325)","reagent no.":3,"G2 robust z-score":-0.673,"activity call":"inactive"}
{"gene":"AHDC1 (GeneID 27245)","reagent no.":1,"G2 robust z-score":-0.444,"activity call":"inactive"}
{"gene":"AHDC1 (GeneID 27245)","reagent no.":2,"G2 robust z-score":0.17,"activity call":"inactive"}
{"gene":"AHDC1 (GeneID 27245)","reagent no.":3,"G2 robust z-score":0.789,"activity call":"inactive"}

A portion taken from the entries so far, for reference:
{"gene":"ZNF132 (GeneID 7691)","reagent no.":3,"G2 robust z-score":1.66,"activity call":"inactive"}
{"gene":"CHD6 (GeneID 84181)","reagent no.":1,"G2 robust z-score":-0.82,"activity call":"inactive"}
{"gene":"CHD6 (GeneID 84181)","reagent no.":2,"G2 robust z-score":-0.311,"activity call":"inactive"}
